Source: the supplement of paper PMC3334620
Over roughly 33,000 sequences, “E-score (-0.5 to 0.5)” has its median near -8e-05; the highest 2% begin near 0.23. Some of the results follow.

These sequences were tested against T1, Nrg2 (UniProt P38082) (assay: PBM E-score (8-mer binding enrichment) (E-score (-0.5 to 0.5)); higher = stronger / more preferred TF binding). Settings: protein concentration: 100 nM; construct: GST-full length.
T1 sequence: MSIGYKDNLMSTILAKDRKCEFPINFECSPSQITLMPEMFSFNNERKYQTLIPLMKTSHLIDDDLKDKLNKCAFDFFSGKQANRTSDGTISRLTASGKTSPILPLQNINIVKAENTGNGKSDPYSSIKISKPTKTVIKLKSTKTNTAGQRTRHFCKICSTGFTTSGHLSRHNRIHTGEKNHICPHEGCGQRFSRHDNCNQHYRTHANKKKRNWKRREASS
Summary of the method: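 Detection of bound protein used fluorescent anti-GST, with scans normalised by masliner. The proteins were GST-tagged yeast transcription factors applied at about 100-200 nM to universal all-10-mer Agilent arrays made double-stranded by primer extension. Each ungapped eight-base word, pooled with its reverse complement, was scored with an E-score from the Universal PBM Analysis Suite.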

Sequence	PBM E-score
CGGCTAAG	0.0639
CCTCTATA	-0.141
ACGAAAAA	0.00232
CCCCGCAG	-0.0231
CGCGCGTC	0.262
CGCAGCGA	-0.0266
ATATGAGG	0.0351
ATTGTCGC	0.136
GAAACGGA	0.0917
AAGCAGTG	-0.0406
GGCCACAA	0.0535
CGAAGCCC	-0.108
CGCAGGCC	0.0329
TGGTATAA	0.105
AGATATCA	0.174
GAACTTCC	0.032
CATAGCGC	0.146
CATAACGC	-0.0304
TAAGCTCA	-0.119
AAGCTCAG	-0.104
AAACGAAA	0.206
CCACACGA	0.034
CGTTTGAG	-0.111
TAGGAACA	-0.0468
GTTCCCCA	-0.0328

Sequence	PBM E-score
AACGCGTT	0.115
GATGTGAA	0.147
AAACTTCC	-0.139
GATATACC	0.162
CCATTCCA	-0.0852
CTGGGAGC	-0.244
AGGAGGGC	-0.161
GGCACCGA	-0.128
CTGTGGGC	-0.0967
CGGAGACA	0.0791
CCATACCC	-0.178
CAACAGAG	0.0505
AAAACATC	0.0143
AACGCGTC	0.0607
GCGAAATA	0.0146
GAAGCAAC	0.119
CGCGGTGA	0.0503
CCCCCGGA	-0.299
ACCCTTAT	0.28
AAAATTCG	0.224
AATCGCGC	0.23
AGCTCACC	-0.118
ACAACCAT	0.24
AGTCCGAG	0.154
AGCACTGG	-0.148

Pulled one by one from the entries so far (6):
Sequence	PBM E-score
AACGCGTC	0.0607
CCCCCGGA	-0.299
AAACTTCC	-0.139
AATCGCGC	0.23
ACCCTTAT	0.28
CGGAGACA	0.0791

Additional entries:

Sequence	PBM E-score
TACTACTA	0.179
GATCCAAA	0.284
CCACTGAG	-0.153
ACCGCATC	0.159
AGATCACC	-0.00667
CGCGATTC	0.173
AACATTAA	0.0923
AGTACAGA	0.115
TACCGGGA	0.0107
CTCATCTA	-0.0918
ACACTCGT	0.015
CGAATCAG	0.122
AAGAGGAG	-0.174
ATACCTAG	0.16
CACCTTTA	-0.121
GAGTTATC	0.153
AGTGTGTA	0.101
CATCCCAC	-0.286
GATTCAAA	-0.0297
CAGAGCCG	0.0124
ACGCCCCG	0.103
CCTGACAC	0.072
CGGCGCCA	0.0132
GATAGTGC	-0.0437
ACTAATGG	0.145

An excerpt of these results, bar-delimited:
Sequence | PBM E-score
CGAATCAG | 0.122
AAGAGGAG | -0.174
ATACCTAG | 0.16
CACCTTTA | -0.121
GAGTTATC | 0.153

Later entries:

Sequence	PBM E-score
AATGTCCA	-0.00033
CAAATTCA	0.0673
CCACCCGC	0.0031
ACACCACT	0.156
AACAAGCT	0.129
GTTTGGGA	0.0768
GTAATTGA	0.00642
GACCGGGA	-0.164
CTAGCTAC	-0.177
ATGGCAAT	0.00222
GATTTACC	0.17
ACCAGATG	-0.0443
CCAGACCC	0.00894
CAGATTCG	-0.0367
AGGCGCCA	0.176
GGTGACAC	-0.0741
CGGGCCCC	0.119
CCGAGGGA	-0.0812
GGGACTCA	0.0716
TCGCACGA	-0.00406
AATCATGA	0.167
CCTGCTCC	-0.163
CCAAGTCA	0.057
AATAAAAG	0.0308
AGTTTGGC	0.0586

Sequence	PBM E-score
TCAAGACA	-0.0728
AAAAACTT	-0.148
CAGCGGGC	-0.0829
CAAACAGG	0.0572
CCGCCCCC	-0.406
AATACAAG	0.296
CAGCTCCA	0.00413
CTCGAAAC	0.134
CACACGGG	0.0131
AAGCAAAA	0.164
GCTTCATA	-0.0128
CTGTGGGA	-0.0261
CAAATACA	0.203
CTAATTTC	0.163
GCGATAGC	-0.0188
TAGAGAAA	0.00442
ATCGATCC	-0.0823
CATGCGCG	0.083
ATGCTTGG	-0.167
CTACGAGA	0.0426
ATTTTTCA	0.0246
AGAAGAGA	-0.076
AAGAAGTC	-0.108
CCTCCCCG	-0.161
CGATCAAA	0.0805

Sequence	PBM E-score
AGGAATTA	-0.0266
TAACCGCA	0.162
AATGGAGC	-0.0407
GGTCCGAC	0.0798
GGGTTAAA	-0.0823
CTTCTGTA	-0.0717
CAGTTTCG	0.0644
GCGACCGA	0.0891
AACTTCCC	0.013
AAGTTTGC	0.174
CGAGAAAG	-0.0958
CGAGCAGA	-0.0931
AACGCACA	0.125
GCCGCGGC	0.193
ATCATGGA	-0.121
ATTTCCTC	-0.00403
CATAGCGG	-0.189
CGCTCTGC	-0.142
AACTCGTA	0.0795
AGTAATGC	-0.0951
AACCGAGA	0.128
ATTCGTAG	0.094
GTAAACCA	0.0504
CTAGCGGA	-0.125
CACGCGGG	-0.0425

Sequence	PBM E-score
CGAGGCTC	-0.157
CTCCCCAC	-0.024
TCGACAAA	0.184
GCTAGCCC	-0.15
ATTTTCAG	0.0863
GGTAAGAA	-0.188
ATCCTCTA	-0.119
ATGGCTAG	-0.00759
CATGATGC	-0.0448
ATAGCTTA	-0.0254
AACGTCGG	0.0484
GCAGCCCC	0.0365
ATGGCGCG	0.0257
CGTGTGCC	-0.114
AGGAGACC	-0.0497
CCGTGCGC	0.0769
GGATATTA	0.147
ACCTTACG	-0.0237
CAACTCAG	0.0285
AGATGCAT	0.0687
CTGCGTAA	0.0115
ACCAATAA	-0.036
